The values that follow come from paper PMC8403985.

Protein sequences, listed by entry. Tags and fused reporters are not part of them. Lines headed by an entry give the natural chain unless they say otherwise; changes in a name come on top.
UniProt Q13153: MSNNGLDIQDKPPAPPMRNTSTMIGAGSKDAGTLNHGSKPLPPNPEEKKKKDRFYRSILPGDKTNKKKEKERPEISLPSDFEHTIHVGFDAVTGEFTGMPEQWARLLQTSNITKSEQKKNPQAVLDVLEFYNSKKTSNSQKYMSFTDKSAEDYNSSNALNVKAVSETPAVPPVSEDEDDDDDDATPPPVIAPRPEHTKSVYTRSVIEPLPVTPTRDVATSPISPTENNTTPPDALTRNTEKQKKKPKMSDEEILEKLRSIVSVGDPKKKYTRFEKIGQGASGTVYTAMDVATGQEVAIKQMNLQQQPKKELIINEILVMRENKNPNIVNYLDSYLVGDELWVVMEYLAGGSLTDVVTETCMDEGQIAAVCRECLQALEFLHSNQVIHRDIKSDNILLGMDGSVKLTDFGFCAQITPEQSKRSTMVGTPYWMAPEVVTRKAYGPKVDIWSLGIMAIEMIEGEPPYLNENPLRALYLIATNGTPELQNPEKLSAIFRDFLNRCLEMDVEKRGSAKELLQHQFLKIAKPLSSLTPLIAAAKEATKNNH
UniProt P60953: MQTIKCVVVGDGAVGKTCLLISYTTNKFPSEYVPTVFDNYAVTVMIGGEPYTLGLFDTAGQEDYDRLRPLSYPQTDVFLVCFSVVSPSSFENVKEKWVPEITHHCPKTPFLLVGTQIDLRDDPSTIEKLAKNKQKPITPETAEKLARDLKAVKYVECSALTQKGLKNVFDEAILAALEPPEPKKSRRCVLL

These are yes or no findings as the source states them, for the method shown. In cells and extracts the contact can be indirect. Binding can be weak; no strength is given.

The experiment concerns the target p21 activated kinase 1 protein (PAK1) - p21 binding domain (PBD) coated beads (UniProt Q13153). Description: pull-down; 20 ug PAK1-PBD coated beads incubated with 300-800 ug lysate of MDA-MB-231 cells (treated with control or CD99 siRNA) on a rotator at 4°C for 1 h; bound CDC42 detected by blotting with anti-CDC42 antibodies; only the target purified.

For the substance “GTP-bound CDC42 (from UniProt P60953 1-191)”, the binding entry is recorded as “binds”.
